Source: PubChem BioAssay AID624297 (National Center for Advancing Translational Sciences (NCATS), 2012)
In all, about 340,000 compounds went through this assay and about 6,200 (1.8%) were called active. The shares of active, inactive and inconclusive entries below differ from those in the screen. Calls come from the whole dose curve; as a rule, active = well fitted activation curve with a large enough effect; inconclusive = small, poorly fitted or top-dose-only effect; inactive = no such curve, though single readings can be large or run the other way. Where the call is inconclusive, the potency comes from a doubtful curve fit.

Assay: A quantitative high throughput screen for small molecules that induce DNA re-replication in SW480 colon adenocarcinoma cells. For re-replication activation: % of control where 0% means no effect. Note: nearly all actives have a fitted effect of over 55% in size.
Conditions: Hoechst DNA content imaging, 48 h; re-replication activation: at 46.1 µM (top of the series) unless noted
How it was run: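 Compounds, transferred as 23 nL by pin tool, were incubated with cells for 48 hr; DNA content per nucleus was then quantified by Hoechst staining and fluorescence plate imaging.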
Potency is the fitted concentration of half-maximal effect.

Structure (SMILES)	re-replication activation	Potency
Cn1ncc(Cl)c(Oc2ccc(C(C)(C)C)cc2)c1=O	inactive: -0.658%	
CCOc1c(C(N)=O)c(-c2ccccc2)c2c(=O)[nH]c3ccccc3n12		inconclusive: 16.4 µM [activator, partial curve, poor fit]
O=C(Nc1cccc2ccccc12)C12CC3CC(C1)CC(n1cnc([N+](=O)[O-])n1)(C3)C2		inconclusive: 20.6 µM [activator, partial curve, poor fit]
COc1ccc(/C(O)=C/c2nc3ccc(C(=O)NCCc4cccc(C)c4)cc3[nH]c2=O)cc1OC		inconclusive: 3.26 µM [activator, single point]
O=C(N/N=C/C(Br)=C/c1ccccc1)c1ccc([N+](=O)[O-])cc1		inconclusive: 18.4 µM [activator, single point]
O=C(c1ccc2nc(-c3ccco3)c(-c3ccco3)nc2c1)N1CCN(c2ncccn2)CC1	inactive: 9.15%	
Nc1c(S(=O)(=O)c2ccccc2)c2nc3ccccc3nc2n1Cc1ccco1		inconclusive: 29.1 µM [activator, single point]
CCC(C)c1ccccc1NC(=O)COC(=O)c1ccc2[nH]c3c(c2c1)CCCC3 (stereo unspecified)		inconclusive: 29.1 µM [activator, single point]
Cc1sc(NC(=O)c2ccco2)c(CN2CCN(c3ccccc3)CC2)c1C		inconclusive: 8.2 µM [activator, partial curve, poor fit]
O=C(OCC(=O)N1CCCc2ccccc21)c1ccccc1NCCO	inactive: 2.33%	
c1ccc(-c2csc(-n3cccn3)n2)cc1	inactive: -1.72%	
CN=C1N(C)C[C@@H]2[C@@H]3C(=O)N(C)C(=O)[C@@H]3[C@](C)(C(=O)OC)N12		inconclusive: 0.082 µM [activator, full curve, poor fit]
O=C(COC(=O)c1ccc(NS(=O)(=O)c2cccs2)cc1O)Nc1nc2ccccc2s1	inactive: -14.6%	
Fc1ccc(/C=N/NC(=S)Nc2cccnc2)cc1		inconclusive: 0.82 µM [activator, full curve]
Nc1c(C(=O)Nc2cccc(C(=O)O)c2)sc2nc3c(cc12)CCCC3		inconclusive: 25.9 µM [activator, single point]
O=c1[nH]c(CCl)nc2cc(-c3ccc(F)cc3)sc12		inconclusive: 29.1 µM [activator, single point]
COCCN(Cc1ccccc1)C(=O)c1cccc(S(=O)(=O)N2CCN(c3ccc(F)cc3)CC2)c1		inconclusive: 6.51 µM [activator, single point]
COc1ccc(C2(c3ccc(OC)cc3)NC(=O)N(CC(=O)Nc3ccccc3C)C2=O)cc1		inconclusive: 16.4 µM [activator, partial curve, poor fit]
CCC(CO)Oc1cc(NCc2ccc(F)cc2)c2ncn(C(C)C)c2c1 (stereo unspecified)		inconclusive: 29.1 µM [activator, partial curve, poor fit]
CC(=O)c1ccc(N2CCN(S(=O)(=O)c3ccc(-c4cnc(C5CC5)o4)cc3)CC2)cc1	inactive: 0.354%	
COc1cc(C(=O)Nc2ccc(N3CCOCC3)cc2)ccc1OCc1c(C)noc1C	inactive: 2.35%	
COCc1nnc(NC(=O)COc2ccc3c(c2)OCO3)s1		inconclusive: 23.1 µM [activator, partial curve, poor fit]

Some of the entries so far, as comma-separated lines:
Structure (SMILES),re-replication activation,Potency
COCCN(Cc1ccccc1)C(=O)c1cccc(S(=O)(=O)N2CCN(c3ccc(F)cc3)CC2)c1,,"inconclusive: 6.51 µM [activator, single point]"
COc1ccc(C2(c3ccc(OC)cc3)NC(=O)N(CC(=O)Nc3ccccc3C)C2=O)cc1,,"inconclusive: 16.4 µM [activator, partial curve, poor fit]"
CCC(CO)Oc1cc(NCc2ccc(F)cc2)c2ncn(C(C)C)c2c1 (stereo unspecified),,"inconclusive: 29.1 µM [activator, partial curve, poor fit]"

The list goes on.

Structure (SMILES)	re-replication activation	Potency
COC(=O)c1ccc(/C=C/C(=O)c2ccc(OC)cc2)cc1		inconclusive: 16.4 µM [activator, single point]
CN(C)c1ccc(N=Nc2ccccc2C(=O)OCC(=O)Nc2ccccc2C(F)(F)F)cc1		inconclusive: 1.16 µM [activator, full curve, poor fit]
CCn1c(Cc2ccccc2)nnc1SCC(=O)Nc1ccc(OC)cc1		inconclusive: 6.31 µM [activator, single point]
COc1cc2c(cc1OC)-c1nc3ccccc3c(=O)n1C(C)(C)C2	inactive: -1.74%	
COc1ccc(/C=C2\CCCC3C2=NN(C(=O)CSc2ncn[nH]2)C3c2ccc(OC)cc2)cc1 (stereo unspecified)		inconclusive: 29.1 µM [activator, single point]
CCCN1CCC(=NNc2ccc(S(=O)(=O)N(CC)CC)cc2[N+](=O)[O-])CC1		inconclusive: 20.6 µM [activator, single point]
COc1ccc(CN(C)CC2CCCN(CCc3ccc(F)cc3)C2)c(OC)c1OC (stereo unspecified)		inconclusive: 1.46 µM [activator, full curve, poor fit]
O=C(Nc1ccc(Cl)cc1)Nc1cccc2nsnc12		inconclusive: 4.61 µM [activator, full curve, poor fit]
O=C(O)c1ccc(Cl)c(S(=O)(=O)Nc2ccccc2C(=O)Nc2ccc(Cl)cc2)c1	inactive: -4.08%	
COC(=O)C1=C(C)N(C(C)c2ccccc2)C(=O)C1 (stereo unspecified)		inconclusive: 20.6 µM [activator, single point]
NC(=O)CCC1NC(=S)N(Cc2ccccc2)C1=O (stereo unspecified)	inactive: -3.11%	
CCCNC(=O)c1ccc(COc2ccc(C(C)(C)C)cc2)o1	inactive: 8.73%	
CCN(CC)c1ccc2cc(S(=O)(=O)c3ccc(C)cc3)c(=O)oc2c1		active: 3.26 µM
O=C(NCCCN1CCCC1)c1ccc(CSCc2cccc(Cl)c2)o1		inconclusive: 12.6 µM [activator, partial curve, poor fit]
O=C(NC1CCCC1)c1ccc(CS(=O)Cc2ccc(Cl)cc2)o1 (stereo unspecified)		inconclusive: 14.6 µM [activator, partial curve, poor fit]
COc1ccc([N+](=O)[O-])cc1NS(=O)(=O)Cc1ccccc1		inconclusive: 0.164 µM [activator, full curve, poor fit]
COc1cc2c(cc1OC)C(C)N(S(=O)(=O)c1cnc(Cl)c(Cl)c1)CC2 (stereo unspecified)	inconclusive: -9.98% [activator]	
O=C1CN(C(=O)COC(=O)c2ccc(Br)o2)c2ccccc2N1	inactive: -0.361%	
N#CC1(C#N)CC(C=O)=C(N)C1(C#N)CC(=O)C12CC3CC(CC(C3)C1)C2 (stereo unspecified)		inconclusive: 29.1 µM [activator, single point]
O=C1N=C(N2CCOCC2)S/C1=C\c1ccc(-c2ccccc2Cl)o1		active: 13 µM
OCc1nc2ccccc2n1CCc1ccccc1		inconclusive: 29.1 µM [activator, partial curve, poor fit]
COc1cc(C)ccc1N(CCCN1C(=O)c2cccc3cccc(c23)C1=O)C(=O)c1cccs1		inconclusive: 6.51 µM [activator, partial curve, poor fit]

Entries of single compounds, quoted from the list.
O=C1CN(C(=O)COC(=O)c2ccc(Br)o2)c2ccccc2N1 as listed: re-replication activation: inactive: -0.361%
O=C1N=C(N2CCOCC2)S/C1=C\c1ccc(-c2ccccc2Cl)o1 as listed: Potency: active: 13 µM

(further entries)

Structure (SMILES)	re-replication activation	Potency
CCOC(=O)c1ccc(NC(=S)Nc2ccccc2)cc1		inconclusive: 20.6 µM [activator, partial curve, poor fit]
COc1ccc(NS(=O)(=O)c2cc(-c3cnc(C4CC4)o3)ccc2C)cc1		inconclusive: 11.6 µM [activator, partial curve, poor fit]
COc1ccccc1N1C(=O)C2C(C(=O)c3ccccc3)=NN(c3ccc(Br)cc3)C2C1=O (stereo unspecified)		inconclusive: 20.6 µM [activator, single point]
O=C(N/N=C\c1cccnc1)c1ccccc1O	inactive: 14.4%	
CCOc1cc(/C=N/Nc2ncc(C)c(=O)[nH]2)ccc1O		inconclusive: 20.6 µM [activator, single point]
O=C(CCc1ccccc1)Nc1ccccc1C(F)(F)F		inconclusive: 14.6 µM [activator, single point]
Nc1ccc(-n2nc3ccccc3n2)cc1		inconclusive: 25.9 µM [activator, single point]
N#Cc1ccsc1NC(=O)CCN1CCN(C(c2ccccc2)c2ccccc2)CC1		inconclusive: 0.731 µM [activator, full curve, poor fit]
O=C(Nc1ccccc1C(=O)N1CCOCC1)c1cccnc1		inconclusive: 29.1 µM [activator, partial curve, poor fit]
Cc1c(Cc2ccccc2)sc(NC(=O)C(C)(C)C)c1C(N)=O		inconclusive: 20.6 µM [activator, single point]
S=c1[nH]nc(-c2cc(-c3ccccc3)n[nH]2)n1/N=C/c1cccc(Cl)c1		inconclusive: 18.4 µM [activator, single point]
Cn1ncc(Cl)c1C(=O)N1CCN(C(=O)c2ccco2)CC1	inactive: -2.87%	
Cc1ccc(NC(=O)c2ncn(CCCNCc3ccccn3)n2)cc1C	inactive: 9.79%	
CCOc1ccc(NC(=S)NCc2ccc3[nH]c(C)cc3c2)cc1	inactive: -18.3%	
COc1cc(S(=O)(=O)N2CCOCC2)ccc1NC(=O)COc1ccc(N(C)S(=O)(=O)c2ccc(C)cc2)cc1		inconclusive: 0.092 µM [activator, full curve, poor fit]
Cc1ccc(Cn2c(=N)c(C(=O)NCc3ccco3)cc3c(=O)n4ccccc4nc32)cc1		active: 3.55 µM
O=C(Nc1ccccc1C(=O)O)c1ncn[nH]1		inconclusive: 1.84 µM [activator, partial curve, poor fit]
CC(C)(C)CC(C)(C)NC1=CC(=O)OC12CCCCC2		inconclusive: 29.1 µM [activator, single point]
CCN1C(=O)N/C(=C/c2cc(C)n(Cc3ccccc3)c2C)C1=O		inconclusive: 32.6 µM [activator, partial curve, poor fit]
COc1ccccc1NS(=O)(=O)c1cc(NC(=S)NCCN2CCOCC2)ccc1N1CCOCC1	inactive: -3.61%	
Cc1ccc2c(c1)N(S(=O)(=O)c1cc(-c3cc(C)no3)ccc1C)CCO2		inconclusive: 0.184 µM [activator, full curve, poor fit]
CCN(CC)C1=N/C(=C\c2ccc(OC)cc2)C(=O)N1c1ccccc1		active: 16.4 µM
